This passage reports binding results from publication PMC4622077.

By UniProt entry, the sequences of proteins in these tests, tags left out.
UniProt P24385: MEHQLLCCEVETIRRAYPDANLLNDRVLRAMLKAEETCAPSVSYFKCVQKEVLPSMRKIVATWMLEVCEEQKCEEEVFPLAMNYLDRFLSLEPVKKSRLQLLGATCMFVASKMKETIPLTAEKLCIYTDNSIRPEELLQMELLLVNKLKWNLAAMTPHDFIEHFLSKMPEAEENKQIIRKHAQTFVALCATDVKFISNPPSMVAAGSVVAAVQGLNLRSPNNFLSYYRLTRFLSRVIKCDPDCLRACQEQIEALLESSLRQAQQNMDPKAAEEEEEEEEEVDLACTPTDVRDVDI

Results are given in words; binding and its absence hold for the method and conditions named. Some results given as binding are weak or reduced against the parent protein; the word gives no strength.

This experiment has as its target T1, Cyclin-Dependent Kinase 4 (UniProt P30285).
T1 sequence: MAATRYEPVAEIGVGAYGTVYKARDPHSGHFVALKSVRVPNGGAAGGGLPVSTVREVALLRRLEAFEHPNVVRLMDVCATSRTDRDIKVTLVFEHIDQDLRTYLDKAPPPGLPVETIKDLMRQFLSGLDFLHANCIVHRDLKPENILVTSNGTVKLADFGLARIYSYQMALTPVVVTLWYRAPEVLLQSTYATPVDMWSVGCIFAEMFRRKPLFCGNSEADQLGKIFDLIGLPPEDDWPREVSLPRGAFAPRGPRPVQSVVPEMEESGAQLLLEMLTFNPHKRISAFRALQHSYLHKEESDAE
Kind of experiment: AlphaScreen or HTRF; classical HTRF between tagged CycD1 and tagged CDK4, read with donor and acceptor antibodies; lysates in HTRF lysis buffer (Tris 10 mM, EDTA 1 mM, 0.05% NP-40), 384-well plate.

On to “Tagged Cyclin D1 protein (from UniProt P24385 1-295)”, for which the binding result is given as “binds”.
